Data reported in PubChem BioAssay AID652136 (The Scripps Research Institute Molecular Screening Center, 2013).
Only a part is listed here, and it is no random draw. The source made the active and inactive calls.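 The calls were made as follows: active = inhibition above the mean of all tested compounds plus 3 SD (cut at about 3% in these data); inactive = the rest.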

assay: StAR reporter signal changes without DAX1, counter-screen for DAX1 inhibitor project, cell-based, luminescence, AF-2 mutant SF-1, transactivation (AID 652136); conditions: HEK293 StAR-luciferase, SF-1 AF2 mutant, at 6.8 µM, hits give high values;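 also: 0% = DAX-1 transfected cells with DMSO and 100% = cells without DAX-1 with DMSO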

SMILES	inhibition
O=C(C=Cc1ccccc1)Nc1ccccc1	active: 9.21%
